Measured data: PubChem BioAssay AID1159584 (Peter MacCallum Cancer Centre, 2016)

Purpose: 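Genes whose loss is lethal only together with E-cadherin loss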 (primary screen)
Cell system: human MCF10A breast epithelial cells, parental and CDH1-null
Reagent: siRNA against human genes
Measurement: 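Cell viability by CellTiter-Glo ATP luminescence, each line scaled to the mean of mock wells across plates, then CDH1-null over parental ratio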
Scale: CDH1-null / parental viability ratio: higher = CDH1-null cells survive relatively better than parental; CDH1-null viability vs mock: higher = more viable CDH1-null cells; parental viability vs mock: higher = more viable parental cells
The whole screen tested about 18,000 reagents; shown is a part drawn at random. Not stated in the record: the amount of reagent, the time to read-out.

no.	target gene	CDH1-null / parental viability ratio	CDH1-null viability vs mock (fraction of mock)	parental viability vs mock (fraction of mock)
1	KRTAP19-1	1.01	0.72	0.71
2	MEGF8	1.02	0.86	0.84
3	TXNRD1	0.97	0.91	0.94
4	RPS3	1.28	0.37	0.29
5	IGSF8	1.29	0.88	0.68
6	BTK	1.2	0.84	0.7
7	NR0B1	1.17	1.05	0.9
8	EML2	0.98	0.82	0.84
9	LPAL2	0.98	0.92	0.94
10	GSTM3	0.98	0.96	0.98
11	AMELY	1.27	0.94	0.74
12	SLC52A3	1.15	0.69	0.6
13	HSD17B2	0.87	0.68	0.78
14	STX5	0.59	0.52	0.88
15	MYMK	1.12	0.94	0.84
16	TBL3	0.93	0.64	0.69
17	PRELID1	0.91	1.12	1.23
18	ANAPC4	0.87	0.54	0.62
19	CDRT15P3	0.72	0.29	0.4
20	ZNF41	1.53	0.66	0.43
21	TRMT2B	1.38	1.24	0.9
22	GMIP	1.09	0.98	0.9
23	TCAF2	0.96	0.5	0.52
24	RPS27L	1.1	0.91	0.83
25	NACA2	1.03	1.1	1.07
26	GTF2H1	1.08	1.06	0.98
27	BUD31	1.07	0.45	0.42
28	PAK6	0.98	0.9	0.92
29	TXNDC17	1.07	0.94	0.88
30	OR8H3	0.89	0.68	0.76
31	CDC23	0.85	0.66	0.78
32	STRA8	1.19	0.44	0.37
33	GADD45G	0.88	0.92	1.04
34	SLFNL1	0.97	0.9	0.93
35	SUCLA2	1.2	1.01	0.84
36	FOXD4L4	0.97	0.7	0.72
37	TENM2	0.93	0.84	0.9
38	ZNF579	0.97	0.84	0.87
39	SAMD10	0.77	0.62	0.8
40	MAGEA5P	1.19	0.31	0.26
41	ZNF345	1.11	1.04	0.94
42	ARSJ	1.21	0.64	0.53
43	EME2	1.17	0.42	0.36
44	TSR3	1.03	0.92	0.89
45	PSMC6	0.75	0.4	0.53
46	USP27X	1.06	0.89	0.84
47	ITGAD	1	0.92	0.92
48	PLGLB2	1.11	0.98	0.88
49	SLC35A5	0.87	0.45	0.52
50	ZNF14	1.03	0.62	0.6
51	TMEM41B	0.7	0.57	0.82
52	H4C9	1.25	0.86	0.69
53	ALB	1.09	0.98	0.9
54	SLC40A1	0.94	1.05	1.12
55	PGPEP1	1.05	0.46	0.44
56	SVIL	1.11	0.78	0.7
57	ESPNL	0.54	0.28	0.52
58	MICALL1	1.06	0.84	0.79
59	CENPH	0.75	0.43	0.57
60	CAMK1G	0.91	0.86	0.94
61	ACTA1	0.85	0.71	0.84
62	PHLDB2	0.67	0.77	1.15
63	IPO5	0.92	1.08	1.18
64	LMO3	0.88	1.12	1.27
65	H3C3	1.09	0.74	0.68
66	CLIC5	1.2	1.04	0.87
67	CDKL2	0.73	0.52	0.71
68	SUSD1	0.7	0.62	0.88

Just “CDH1-null / parental viability ratio”, for 7 of the entries above:
ACTA1: 0.85
PHLDB2: 0.67
IPO5: 0.92
LMO3: 0.88
H3C3: 1.09
CLIC5: 1.2
CDKL2: 0.73
